{
  "source": "patent US8124583B2",
  "about": "“Composition and method for self-assembly and mineralization of peptide-amphiphiles” (Northwestern University, priority 2002, dated 2012)",
  "assay": "Self assembly with CaCl2 and hydroxyapatite mineralization of nanofiber gel (TEM, electron diffraction)",
  "assay_type": "physicochemical",
  "method": "A liquid composition for the self assembly of (1) and mineralization of hydroxyapatite was prepared by dissolving […] NaH2PO4 (Aldrich) into 200 microliters of (1) at a concentration of 10 mg/ml in water. The pH of the solution was adjusted to 7.7.\nThe liquid composition containing (1) and NaH2PO4 was mixed with 40 micromoles of CaCl2 (Aldrich).\nSamples of the gel after 2 hours, 1 day, and 5 days were mounted on carbon-coated TEM grids. TEM studies of the 1 and 5 day samples show a multi-crystalline material composed of plate like crystals˜5 nm thick and 50 to 100 nm long. The plate like crystals were similar to those observed in the mineralization experiments on the pre-assembled template.",
  "data": [
    {"substance": "C15H31C(O)-CCCCGGGS(P)RGD-COOH (CCCCGGGSRGD; N-terminal palmitoyl; phosphoserine) [PA 18]", "values": [
      {"measurement": "thickness of plate like crystals (TEM)", "setting": "1 and 5 day gel samples", "value": "~5", "unit": "nm"},
      {"measurement": "electron diffraction of the mineralized material", "setting": "mineralized gel", "value": "matches the diffraction pattern for hydroxyapatite"}
    ]}
  ]
}
